According to article PMC3463608:
These are yes or no findings as the source states them, for the method shown. Some binding calls cover weakened binding; strength is not graded here. Sequences can lack the tags named with a protein.

Target: T1, His-tagged Chs5p (S. cerevisiae) (UniProt Q12114)
T1 sequence: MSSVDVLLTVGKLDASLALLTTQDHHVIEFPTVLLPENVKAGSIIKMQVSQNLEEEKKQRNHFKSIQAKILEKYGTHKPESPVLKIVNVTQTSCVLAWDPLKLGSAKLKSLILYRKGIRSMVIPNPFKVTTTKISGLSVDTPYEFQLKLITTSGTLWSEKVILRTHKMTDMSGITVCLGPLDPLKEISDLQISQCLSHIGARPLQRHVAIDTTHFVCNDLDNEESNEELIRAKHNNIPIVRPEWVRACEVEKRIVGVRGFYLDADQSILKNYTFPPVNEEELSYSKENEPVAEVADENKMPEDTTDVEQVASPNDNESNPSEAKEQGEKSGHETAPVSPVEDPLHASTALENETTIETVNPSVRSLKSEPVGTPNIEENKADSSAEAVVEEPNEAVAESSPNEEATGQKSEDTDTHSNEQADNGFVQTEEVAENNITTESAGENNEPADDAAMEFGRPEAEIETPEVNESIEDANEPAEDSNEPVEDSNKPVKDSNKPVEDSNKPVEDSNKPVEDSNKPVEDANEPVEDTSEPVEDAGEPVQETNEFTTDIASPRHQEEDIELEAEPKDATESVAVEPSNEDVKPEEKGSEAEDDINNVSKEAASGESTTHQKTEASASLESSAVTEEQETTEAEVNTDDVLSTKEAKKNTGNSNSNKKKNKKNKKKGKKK
Experiment: pull-down; His-Chs5p alone immobilized on Ni-NTA beads, incubated with 150 ug/ml purified GST-Chs3 fragments at RT for 30 min; SDS-PAGE and Coomassie staining; data not shown; both purified

B1: GST-Chs3 (1–170), full N-terminal cytosolic tail of Chs3p (domain or fragment, UniProt P29465 1-170)
chain: MTGLNGDDPDDYYLNLNQDEESLLRSRHSVGSGAPHRQGSLVRPERSRLNNPDNPHFYYAQKTQEQMNHLDVLPSSTGVNPNATRRSGSLRSKGSVRSKFSGRETDSYLLQDMNTTDKKASVKISDEGVAEDEFDKDGDVDNFEESSTQPINKSIKPLRKETNDTLSFWQ
- binding: binds
